# In the supplement of paper PMC8728848:
# This is one part of the list.
# B1: MUB70 (Lactobacillus reuteri) (protein)
# chain: CVHVQYIDGETDQMLRQDDLDGYTDETIPYSTAEGIKKFEGDGYELFKDNFPAGEKFDNDDTNDQFYTVIF
# Columns and labels:
# Assay in all cases: glycan array binding signal (z-score within array); higher = stronger binding
# Details in all cases: glycan notation: IUPAC condensed, linker removed
# [1] = molecular target: Neu5Ac(a2-3)Gal6S(b1-4)[Fuc(a1-3)]GlcNAc
# Summary of the method: (§1)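 Glycan array binding is given as a within-array Z-score, which can be read as non-binding when negative. The arrays, 3228 of them, came from the Consortium for Functional Glycomics database and were retained only where the protein sequence was available. Z-scores were averaged across arrays of the same protein sequence at different concentrations or buffers and across linkers.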
# [2] = molecular target: Neu5Ac(a2-3)GalNAc
# Summary of the method: as §1
# [3] = molecular target: Neu5Ac(a2-3)GalNAc(b1-4)GlcNAc
# Summary of the method: as §1
# [4] = molecular target: Neu5Ac(a2-3)[GalNAc(b1-4)]Gal(b1-4)Glc
# Summary of the method: as §1
# [5] = molecular target: Neu5Ac(a2-3)[GalNAc(b1-4)]Gal(b1-4)GlcNAc
# Summary of the method: as §1
# [6] = molecular target: Neu5Ac(a2-3)[GalNAc(b1-4)]Gal(b1-4)GlcNAc(b1-3)GalNAc
# Summary of the method: as §1
# [7] = molecular target: Neu5Ac(a2-3)[Neu5Ac(a2-6)]GalNAc
# Summary of the method: as §1
# [8] = molecular target: Neu5Ac(a2-6)Gal
# Summary of the method: as §1
# [9] = molecular target: Neu5Ac(a2-6)Gal(b1-3)GlcNAc(b1-3)[Gal(b1-4)GlcNAc(b1-6)]Gal(b1-4)Glc
# Summary of the method: as §1
# [10] = molecular target: Neu5Ac(a2-6)Gal(b1-4)Glc
# Summary of the method: as §1
# [11] = molecular target: Neu5Ac(a2-6)Gal(b1-4)GlcNAc
# Summary of the method: as §1
# [12] = molecular target: Neu5Ac(a2-6)Gal(b1-4)GlcNAc(b1-2)Man
# Summary of the method: as §1
# [13] = molecular target: Neu5Ac(a2-6)Gal(b1-4)GlcNAc(b1-2)Man(a1-3)Man(b1-4)GlcNAc(b1-4)GlcNAc
# Summary of the method: as §1
# [14] = molecular target: Neu5Ac(a2-6)Gal(b1-4)GlcNAc(b1-2)Man(a1-3)[Gal(b1-4)GlcNAc(b1-2)Man(a1-6)]Man(b1-4)GlcNAc(b1-4)GlcNAc
# Summary of the method: as §1
# [15] = molecular target: Neu5Ac(a2-6)Gal(b1-4)GlcNAc(b1-2)Man(a1-3)[GlcNAc(b1-2)Man(a1-6)]Man(b1-4)GlcNAc(b1-4)GlcNAc
# Summary of the method: as §1
# [16] = molecular target: Neu5Ac(a2-6)Gal(b1-4)GlcNAc(b1-2)Man(a1-3)[GlcNAc(b1-4)][Neu5Ac(a2-6)Gal(b1-4)GlcNAc(b1-2)Man(a1-6)]Man(b1-4)GlcNAc(b1-4)GlcNAc
# Summary of the method: as §1
# [17] = molecular target: Neu5Ac(a2-6)Gal(b1-4)GlcNAc(b1-2)Man(a1-3)[Man(a1-6)]Man(b1-4)GlcNAc(b1-4)GlcNAc
# Summary of the method: as §1
# [18] = molecular target: Neu5Ac(a2-6)Gal(b1-4)GlcNAc(b1-2)Man(a1-3)[Neu5Ac(a2-3)Gal(b1-4)GlcNAc(b1-2)Man(a1-6)]Man(b1-4)GlcNAc(b1-4)GlcNAc
# Summary of the method: as §1
# [19] = molecular target: Neu5Ac(a2-6)Gal(b1-4)GlcNAc(b1-2)Man(a1-3)[Neu5Ac(a2-6)Gal(b1-4)GlcNAc(b1-2)Man(a1-6)]Man(b1-4)GlcNAc(b1-4)GlcNAc
# Summary of the method: as §1
# [20] = molecular target: Neu5Ac(a2-6)Gal(b1-4)GlcNAc(b1-2)Man(a1-3)[Neu5Ac(a2-6)Gal(b1-4)GlcNAc(b1-2)Man(a1-6)]Man(b1-4)GlcNAc(b1-4)[Fuc(a1-6)]GlcNAc
# Summary of the method: as §1
# [21] = molecular target: Neu5Ac(a2-6)Gal(b1-4)GlcNAc(b1-2)Man(a1-6)Man(b1-4)GlcNAc(b1-4)GlcNAc
# Summary of the method: as §1
# [22] = molecular target: Neu5Ac(a2-6)Gal(b1-4)GlcNAc(b1-2)Man(a1-6)[Gal(b1-4)GlcNAc(b1-2)Man(a1-3)]Man(b1-4)GlcNAc(b1-4)GlcNAc
# Summary of the method: as §1
# [23] = molecular target: Neu5Ac(a2-6)Gal(b1-4)GlcNAc(b1-2)Man(a1-6)[GlcNAc(b1-2)Man(a1-3)]Man(b1-4)GlcNAc(b1-4)GlcNAc
# Summary of the method: as §1
# [24] = molecular target: Neu5Ac(a2-6)Gal(b1-4)GlcNAc(b1-2)Man(a1-6)[Man(a1-3)]Man(b1-4)GlcNAc(b1-4)GlcNAc
# Summary of the method: as §1
# [25] = molecular target: Neu5Ac(a2-6)Gal(b1-4)GlcNAc(b1-2)[Neu5Ac(a2-6)Gal(b1-4)GlcNAc(b1-4)]Man(a1-3)[GlcNAc(b1-4)][Neu5Ac(a2-6)Gal(b1-4)GlcNAc(b1-2)[Neu5Ac(a2-6)Gal(b1-4)GlcNAc(b1-6)]Man(a1-6)]Man(b1-4)GlcNAc(b1-4)GlcNAc
# Summary of the method: as §1
# [26] = molecular target: Neu5Ac(a2-6)Gal(b1-4)GlcNAc(b1-2)[Neu5Ac(a2-6)Gal(b1-4)GlcNAc(b1-4)]Man(a1-3)[GlcNAc(b1-4)][Neu5Ac(a2-6)Gal(b1-4)GlcNAc(b1-4)Man(a1-6)]Man(b1-4)GlcNAc(b1-4)GlcNAc
# Summary of the method: as §1
# [27] = molecular target: Neu5Ac(a2-6)Gal(b1-4)GlcNAc(b1-2)[Neu5Ac(a2-6)Gal(b1-4)GlcNAc(b1-6)]Man(a1-6)[Neu5Ac(a2-6)Gal(b1-4)GlcNAc(b1-2)Man(a1-3)][GlcNAc(b1-4)]Man(b1-4)GlcNAc(b1-4)GlcNAc
# Summary of the method: as §1
# [28] = molecular target: Neu5Ac(a2-6)Gal(b1-4)GlcNAc(b1-3)Gal(b1-3)GlcNAc
# Summary of the method: as §1
# [29] = molecular target: Neu5Ac(a2-6)Gal(b1-4)GlcNAc(b1-3)Gal(b1-4)GlcNAc
# Summary of the method: as §1
# [30] = molecular target: Neu5Ac(a2-6)Gal(b1-4)GlcNAc(b1-3)Gal(b1-4)GlcNAc(b1-2)Man(a1-3)[Neu5Ac(a2-6)Gal(b1-4)GlcNAc(b1-3)Gal(b1-4)GlcNAc(b1-2)Man(a1-6)]GalNAc
# Summary of the method: as §1
# [31] = molecular target: Neu5Ac(a2-6)Gal(b1-4)GlcNAc(b1-3)Gal(b1-4)GlcNAc(b1-3)Gal(b1-4)GlcNAc
# Summary of the method: as §1
# [32] = molecular target: Neu5Ac(a2-6)Gal(b1-4)GlcNAc(b1-3)Gal(b1-4)GlcNAc(b1-3)Gal(b1-4)GlcNAc(b1-2)Man(a1-3)[Neu5Ac(a2-6)Gal(b1-4)GlcNAc(b1-3)Gal(b1-4)GlcNAc(b1-3)Gal(b1-4)GlcNAc(b1-2)Man(a1-6)]GalNAc
# Summary of the method: as §1
# [33] = molecular target: Neu5Ac(a2-6)Gal(b1-4)GlcNAc(b1-3)Gal(b1-4)GlcNAc(b1-3)GalNAc
# Summary of the method: as §1
# [34] = molecular target: Neu5Ac(a2-6)Gal(b1-4)GlcNAc(b1-3)Gal(b1-4)GlcNAc(b1-3)[Neu5Ac(a2-6)Gal(b1-4)GlcNAc(b1-3)Gal(b1-4)GlcNAc(b1-6)]GalNAc
# Summary of the method: as §1
# [35] = molecular target: Neu5Ac(a2-6)Gal(b1-4)GlcNAc(b1-3)Gal(b1-4)GlcNAc(b1-6)[Gal(b1-3)]GalNAc
# Summary of the method: as §1
# [36] = molecular target: Neu5Ac(a2-6)Gal(b1-4)GlcNAc(b1-3)Gal(b1-4)[Fuc(a1-3)]GlcNAc(b1-3)Gal(b1-4)[Fuc(a1-3)]GlcNAc
# Summary of the method: as §1
# [37] = molecular target: Neu5Ac(a2-6)Gal(b1-4)GlcNAc(b1-3)GalNAc
# Summary of the method: as §1
# [38] = molecular target: Neu5Ac(a2-6)Gal(b1-4)GlcNAc(b1-3)[Neu5Ac(a2-6)Gal(b1-4)GlcNAc(b1-6)]GalNAc
# Summary of the method: as §1
# [39] = molecular target: Neu5Ac(a2-6)Gal(b1-4)GlcNAc(b1-6)GalNAc
# Summary of the method: as §1
# [40] = molecular target: Neu5Ac(a2-6)Gal(b1-4)GlcNAc(b1-6)[Gal(b1-3)GlcNAc(b1-3)]Gal(b1-4)Glc
# Summary of the method: as §1
# [41] = molecular target: Neu5Ac(a2-6)Gal(b1-4)GlcNAc(b1-6)[Gal(b1-3)]GalNAc
# Summary of the method: as §1
# [42] = molecular target: Neu5Ac(a2-6)Gal(b1-4)GlcNAc6S
# Summary of the method: as §1
# [43] = molecular target: Neu5Ac(a2-6)GalNAc
# Summary of the method: as §1
# [44] = molecular target: Neu5Ac(a2-6)GalNAc(b1-4)GlcNAc
# Summary of the method: as §1
# [45] = molecular target: Neu5Ac(a2-6)GalNAc(b1-4)GlcNAc6S
# Summary of the method: as §1
binder,measurement,setting,value
B1,glycan array binding signal (z-score),[1],1.93
same,glycan array binding signal (z-score),[2],-0.802
same,glycan array binding signal (z-score),[3],0.775
same,glycan array binding signal (z-score),[4],-0.6
same,glycan array binding signal (z-score),[5],-0.992
same,glycan array binding signal (z-score),[6],0.003
same,glycan array binding signal (z-score),[7],-0.165
same,glycan array binding signal (z-score),[8],-0.22
same,glycan array binding signal (z-score),[9],-0.242
same,glycan array binding signal (z-score),[10],-0.698
same,glycan array binding signal (z-score),[11],-0.374
same,glycan array binding signal (z-score),[12],-0.612
same,glycan array binding signal (z-score),[13],-0.651
same,glycan array binding signal (z-score),[14],0.099
same,glycan array binding signal (z-score),[15],0.163
same,glycan array binding signal (z-score),[16],0.26
same,glycan array binding signal (z-score),[17],-0.534
same,glycan array binding signal (z-score),[18],1.35
same,glycan array binding signal (z-score),[19],1.81
same,glycan array binding signal (z-score),[20],1.34
same,glycan array binding signal (z-score),[21],-0.269
same,glycan array binding signal (z-score),[22],-0.388
same,glycan array binding signal (z-score),[23],-0.159
same,glycan array binding signal (z-score),[24],-0.097
same,glycan array binding signal (z-score),[25],0.322
same,glycan array binding signal (z-score),[26],0.176
same,glycan array binding signal (z-score),[27],0.051
same,glycan array binding signal (z-score),[28],0.855
same,glycan array binding signal (z-score),[29],-1.33
same,glycan array binding signal (z-score),[30],0.348
same,glycan array binding signal (z-score),[31],0.739
same,glycan array binding signal (z-score),[32],1.78
same,glycan array binding signal (z-score),[33],0.122
same,glycan array binding signal (z-score),[34],0.26
same,glycan array binding signal (z-score),[35],-0.198
same,glycan array binding signal (z-score),[36],-0.536
same,glycan array binding signal (z-score),[37],0.178
same,glycan array binding signal (z-score),[38],-0.196
same,glycan array binding signal (z-score),[39],-0.178
same,glycan array binding signal (z-score),[40],0.217
same,glycan array binding signal (z-score),[41],0.315
same,glycan array binding signal (z-score),[42],2.67
same,glycan array binding signal (z-score),[43],-0.837
same,glycan array binding signal (z-score),[44],-0.379
same,glycan array binding signal (z-score),[45],-0.232

# Rewritten tab-delimited: entries from further up.
binder	measurement	setting	value
B1	glycan array binding signal (z-score)	[23]	-0.159
same	glycan array binding signal (z-score)	[24]	-0.097
